Measurements taken from the supplement of paper PMC8166895.
Counter-ions that a name gives are not always drawn. The list shows a part of the results. Most entries show no effect beyond the scatter of the controls.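 Differential scanning fluorimetry gave melting temperatures in a one-replicate pilot screen of a library of approved drugs plus clinical or known-target compounds. Hits increasing melting point at least 2 °C were the strongest stabilizers, while negative shifts signify destabilization.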

test system: SARS-CoV-2 main protease (Mpro, nsp5); test: thermal shift ΔTm of Mpro relative to plate average Tm; higher = stronger thermal stabilization of Mpro (binding); conditions: 10 µM; protein concentration 1 µM

**Q.** Which “thermal shift ΔTm of Mpro” value does the source give for CC(C)[C@@H]1[C@H]2OC(=O)[C@@H]1[C@@H]1CC[C@@H]3CN(C)[C@H]2[C@@]31C [Dendrobine] here?
**A.** 0.0347 °C

**Q.** Which “thermal shift ΔTm of Mpro” value does the source give for CC(C)(S)C(N)C(=O)O (racemic) [DL-Penicillamine] here?
**A.** 0.187 °C

**Q.** How did the “thermal shift ΔTm of Mpro” value turn out when CC(=O)N(O)CCCCCNC(=O)CCC(=O)N(O)CCCCCNC(=O)CCC(=O)N(O)CCCCCN [Deferoxamine Mesylate] was run?
**A.** 0.0155 °C

**Q.** O=C1Cc2cc(CCN3CCN(c4nsc5ccccc45)CC3)c(Cl)cc2N1 [Ziprasidone] was tested. Which “thermal shift ΔTm of Mpro” value did it give?
**A.** -0.0959 °C

**Q.** Which “thermal shift ΔTm of Mpro” value does the source give for O=C1Cc2cc(CCN3CCN(c4nsc5ccccc45)CC3)c(Cl)cc2N1 [Ziprasidone HCl] here?
**A.** 0.217 °C

**Q.** CC(C)/N=c1\cc2n(-c3ccc(Cl)cc3)c3ccccc3nc-2cc1Nc1ccc(Cl)cc1 [Clofazimine] was tested. Which “thermal shift ΔTm of Mpro” value did it give?
**A.** 0.0226 °C

**Q.** With O=C(Nc1ccc(Cl)cc1)C1CCCN(C(=O)c2cccc(-c3ccco3)c2)C1 (stereo not given) as the compound, how does the “thermal shift ΔTm of Mpro” value read?
**A.** 0.172 °C

**Q.** For CCN[C@H]1C[C@H](C)S(=O)(=O)c2sc(S(N)(=O)=O)cc21 [Dorzolamide hydrochloride], which “thermal shift ΔTm of Mpro” value is on record?
**A.** 0.386 °C

**Q.** CN1CCN(c2ccc(-c3ccncc3-c3cc(F)c(O)c(F)c3)cc2)CC1 was tested. Which “thermal shift ΔTm of Mpro” value did it give?
**A.** 0.141 °C

**Q.** Which “thermal shift ΔTm of Mpro” value does the source give for O=C(O)CCCCN(CCc1ccccc1OCc1ccc(CCc2ccccc2)cc1)Cc1ccc(C(=O)O)cc1 [Cinaciguat] here?
**A.** -0.0236 °C

**Q.** C[C@@H]1[C@H](O)[C@@H](C)/C=C/C=C/C=C/C=C/C=C/C=C/C=C/[C@H](O[C@@H]2O[C@H](C)[C@@H](O)[C@H](N)[C@@H]2O)C[C@@H]2O[C@](O)(C[C@@H](O)C[C@@H](O)[C@H](O)CC[C@@H](O)C[C@@H](O)CC(=O)O[C@H]1C)C[C@H](O)[C@H]2C(=O)O [Amphotericin B] was tested. Which “thermal shift ΔTm of Mpro” value did it give?
**A.** 0.0425 °C

**Q.** Which “thermal shift ΔTm of Mpro” value does the source give for O=c1cc(N2CCOCC2)oc2c1ccc1ccccc12 here?
**A.** 0.14 °C

**Q.** With CCC(Cc1c(I)cc(I)c(N)c1I)C(=O)O (stereo not given) [Iopanoic acid] as the compound, how does the “thermal shift ΔTm of Mpro” value read?
**A.** 0.321 °C

**Q.** How did the “thermal shift ΔTm of Mpro” value turn out when C/C(=N\NC(=O)C(NC(=O)c1ccccc1)c1n[nH]c(=O)c2ccccc12)c1cccc(Br)c1 (stereo not given) was run?
**A.** 0.0135 °C

**Q.** With Cc1cc(Nc2ccc(NC(=O)c3ccc(Nc4ccnc5ccccc45)cc3)cc2)nc(N)n1 as the compound, how does the “thermal shift ΔTm of Mpro” value read?
**A.** 0.823 °C

**Q.** Which “thermal shift ΔTm of Mpro” value does the source give for CNC(CC(=O)O)C(=O)O [NMDA (N-Methyl-D-aspartic acid)] here?
**A.** -0.0829 °C

**Q.** For C[C@H](NC(=O)Cc1cc(F)cc(F)c1)C(=O)N[C@H](C(=O)OC(C)(C)C)c1ccccc1, which “thermal shift ΔTm of Mpro” value is on record?
**A.** -0.116 °C

**Q.** CC(C)N(CCCNC(=O)Nc1ccc(C(C)(C)C)cc1)C[C@H]1O[C@@H](n2ccc3c(N)ncnc32)[C@H](O)[C@@H]1O was tested. Which “thermal shift ΔTm of Mpro” value did it give?
**A.** -0.194 °C

**Q.** Which “thermal shift ΔTm of Mpro” value does the source give for N#CC(C#N)=NNc1ccc(OC(F)(F)F)cc1 here?
**A.** 0.118 °C

**Q.** With C[C@]12CC[C@@H]3c4ccc(O)cc4CC[C@H]3[C@@H]1CC[C@@H]2OC(=O)CCC1CCCC1 [Estradiol Cypionate] as the compound, how does the “thermal shift ΔTm of Mpro” value read?
**A.** 0.777 °C

**Q.** How did the “thermal shift ΔTm of Mpro” value turn out when C[C@]12CCC3=C4CCC(=O)C=C4CC[C@H]3[C@@H]1CCC2=O [Methyldienedione] was run?
**A.** 0.391 °C

**Q.** Which “thermal shift ΔTm of Mpro” value does the source give for CCS(=O)(=O)Nc1ccc2[nH]c(O)c(C(=Nc3ccc(CN4CCCCC4)cc3)c3ccccc3)c2c1 [Hesperadin] here?
**A.** -0.244 °C

**Q.** C[C@H](NC(=O)[C@@H](O)c1cc(F)cc(F)c1)C(=O)N[C@@H]1C(=O)N(C)c2ccccc2-c2ccccc21 was tested. Which “thermal shift ΔTm of Mpro” value did it give?
**A.** -0.029 °C

**Q.** With CC(C)Oc1ccc(Cc2ccc(NC3=NCCN3)cc2)cc1 as the compound, how does the “thermal shift ΔTm of Mpro” value read?
**A.** -0.232 °C

**Q.** For CCc1cc2c(s1)-n1c(C)nnc1CN=C2c1ccccc1Cl [Etizolam], which “thermal shift ΔTm of Mpro” value is on record?
**A.** -0.0434 °C

**Q.** COc1cc(OC)c(C(=O)CCCN2CCCC2)c(OC)c1 [Buflomedil HCl] was tested. Which “thermal shift ΔTm of Mpro” value did it give?
**A.** 0.057 °C

**Q.** How did the “thermal shift ΔTm of Mpro” value turn out when N#CC(c1ccc(Cl)cc1)c1c(Cl)cc(-n2ncc(=O)[nH]c2=O)cc1Cl (stereo not given) [Diclazuril] was run?
**A.** 0.118 °C

**Q.** Which “thermal shift ΔTm of Mpro” value does the source give for O=c1ccc2ccc(O)c(O)c2o1 [Daphnetin] here?
**A.** 3.68 °C

**Q.** Which “thermal shift ΔTm of Mpro” value does the source give for O.O.O.O.O=C([O-])CC(O)(CC(=O)[O-])C(=O)[O-].[Li+].[Li+].[Li+] [Lithium citrate tribasic tetrahydrate] here?
**A.** -0.00458 °C

**Q.** How did the “thermal shift ΔTm of Mpro” value turn out when CC(C)(C)C(=O)OCOP(=O)(COCCn1cnc2c(N)ncnc21)OCOC(=O)C(C)(C)C [Adefovir Dipivoxil] was run?
**A.** -0.013 °C

**Q.** With COc1ccc(CCNCc2ccc(OCc3ccc(Cl)nc3)c(OC)c2)cc1OC as the compound, how does the “thermal shift ΔTm of Mpro” value read?
**A.** -0.164 °C

**Q.** For Cn1c(=O)cnn(CCCCN2CCN(c3ncccn3)CC2)c1=O [Eptapirone], which “thermal shift ΔTm of Mpro” value is on record?
**A.** 0.188 °C

**Q.** How did the “thermal shift ΔTm of Mpro” value turn out when O=S(=O)(c1cccc2c(I)cccc12)N1CCCNCC1 [ML-7 hydrochloride] was run?
**A.** -0.226 °C

**Q.** For COc1ccccc1N1CCN(CC(O)COc2cccc3ccccc23)CC1 (stereo not given) [Naftopidil DiHCl], which “thermal shift ΔTm of Mpro” value is on record?
**A.** 0.138 °C

**Q.** For COc1ccccc1N1CCN(CC(O)COc2cccc3ccccc23)CC1 (stereo not given) [Naftopidil], which “thermal shift ΔTm of Mpro” value is on record?
**A.** 0.1 °C

**Q.** CN1CCC(=C2c3ccccc3CC(=O)c3sccc32)CC1 [Ketotifen Fumarate] was tested. Which “thermal shift ΔTm of Mpro” value did it give?
**A.** 0.0269 °C

**Q.** With CCCNC[C@]1(O)[C@H](C)O[C@@H](O[C@H]2[C@H](C)[C@@H](O[C@@H]3O[C@H](C)C[C@H](N(C)C)[C@H]3O)[C@](C)(O)C[C@@H](C)CN[C@H](C)[C@@H](O)[C@](C)(O)[C@@H](CC)OC(=O)[C@@H]2C)C[C@@]1(C)OC [Tulathromycin A] as the compound, how does the “thermal shift ΔTm of Mpro” value read?
**A.** -0.0443 °C

**Q.** Which “thermal shift ΔTm of Mpro” value does the source give for O=C(O)CC[C@H]1CC[C@@](c2cc(F)ccc2F)(S(=O)(=O)c2ccc(Cl)cc2)CC1 here?
**A.** 0.0152 °C

**Q.** C/C=C1\NC(=O)[C@H]2CSSCC/C=C/[C@H](CC(=O)N[C@H](C(C)C)C(=O)N2)OC(=O)[C@H](C(C)C)NC1=O [Romidepsin] was tested. Which “thermal shift ΔTm of Mpro” value did it give?
**A.** 0.114 °C

**Q.** CC(C)c1cc(/C=C(\C#N)C(N)=O)cc(C(C)C)c1O was tested. Which “thermal shift ΔTm of Mpro” value did it give?
**A.** -0.0114 °C

**Q.** With CCc1ccc(N(CC(C)C)S(=O)(=O)c2ccc(OCC3CCOCC3)c(CO)c2)cc1 as the compound, how does the “thermal shift ΔTm of Mpro” value read?
**A.** 0.0791 °C

**Q.** COC(=O)c1sccc1S(=O)(=O)Nc1ccc(Nc2ccccc2)cc1OC was tested. Which “thermal shift ΔTm of Mpro” value did it give?
**A.** -0.108 °C

**Q.** With CC(C)(Sc1cc(C(C)(C)C)c(O)c(C(C)(C)C)c1)Sc1cc(C(C)(C)C)c(O)c(C(C)(C)C)c1 [Probucol] as the compound, how does the “thermal shift ΔTm of Mpro” value read?
**A.** 0.136 °C

**Q.** Which “thermal shift ΔTm of Mpro” value does the source give for Cc1cccc(-c2[nH]ncc2-c2ccnc3ccccc23)n1 here?
**A.** 0.0571 °C

**Q.** For CCOc1cc(C(C)(C)C)ccc1C1COC(c2c(F)cccc2F)=N1 (stereo not given) [Etoxazole], which “thermal shift ΔTm of Mpro” value is on record?
**A.** -0.227 °C

**Q.** With C=CC(=O)Nc1cccc(Nc2nc(Nc3ccc(N4CCN(C(C)=O)CC4)cc3OC)ncc2C(F)(F)F)c1 as the compound, how does the “thermal shift ΔTm of Mpro” value read?
**A.** 0.00733 °C

**Q.** Which “thermal shift ΔTm of Mpro” value does the source give for O=C(Nc1ccc(O)cc1)c1ccccc1O [Osalmid] here?
**A.** 0.101 °C

**Q.** With CS(=O)(=O)CCNCc1ccc(-c2ccc3ncnc(Nc4ccc(OCc5cccc(F)c5)c(Cl)c4)c3c2)o1 as the compound, how does the “thermal shift ΔTm of Mpro” value read?
**A.** 0.628 °C

**Q.** For CS(=O)(=O)CCNCc1ccc(-c2ccc3ncnc(Nc4ccc(OCc5cccc(F)c5)c(Cl)c4)c3c2)o1 [Lapatinib], which “thermal shift ΔTm of Mpro” value is on record?
**A.** 0.674 °C

**Q.** For CS(=O)(=O)CCNCc1ccc(-c2ccc3ncnc(Nc4ccc(OCc5cccc(F)c5)c(Cl)c4)c3c2)o1 [Lapatinib ditosylate monohydrate], which “thermal shift ΔTm of Mpro” value is on record?
**A.** 0.32 °C
